Test results reported in publication PMC8298264, “Function of cofactor Akirin2 in the regulation of gene expression in model human neutrophil-like HL60 cells” (Bioscience Reports, 2021).

tested on: human HL60 cells; test: SWATH-MS proteomics, differential protein representation, akirin2 KO vs WT HL60 cells; assay type: cell-based; details: KO vs WT HL60 cells; sheet "Under-represented in KO"
Protocol: Total proteins were extracted from WT and akirin2 KO HL60 cells using the AllPrep DNA/RNA/Protein Mini Kit (Qiagen) and protein concentration was determined using the BCA Protein Assay with BSA (Sigma–Aldrich) as standard. Protein extracts (150 µg per sample, n=3 biological replicates) from each WT and KO cells were trypsin digested using the FASP Protein Digestion Kit (Expedeon Ltd., Abcam, Cambridge, U.K.) and sequencing grade trypsin (Promega, Madison, WI, U.S.A.) following manufacturer’s recommendations. The resulting peptides were finally desalted on to OMIX Pipette tips C18 (Agilent Technologies, Santa Clara, CA, U.S.A.), dried down and stored at −20 °C until mass spectrometry analysis. […] Three micrograms of each protein digest from the three biological replicates of WT and akirin2 KO HL60 cells were used for the generation of the reference spectral ion library as part of the SWATH-MS analysis.
Peptides were eluted in a 120-min gradient from 5 to 30% solvent B in solvent A followed by 15-min gradient from 30 to 60% solvent B in solvent A (solvent A: 0.1% formic acid in water, solvent B: 0.1% formic acid in acetonitrile) and directly injected into the mass spectrometer for analysis. For IDA experiments, the mass spectrometer was set to scanning full spectra (350–1400 m/z) using 250 ms accumulation time per spectrum, followed by up to 50 MS/MS scans (100–1500 m/z). Candidate ions with a charge state between +2 and +5 counts per second above a minimum threshold of 100 were isolated for fragmentation. One MS/MS spectrum was collected for 100 ms, before adding those precursor ions to the exclusion list for 15 s (mass spectrometer operated by Analyst TF 1.6, AB Sciex). Dynamic background subtraction was turned off. MS/MS analyses were recorded in high-sensitivity mode with rolling collision energy on and a collision energy spread of 5. For SWATH quantitative analysis, six independent samples (three replicates from WT and akirin2 KO HL60 cells, 5 µg each) were subjected to the cyclic DIA of mass spectra using the SWATH variable windows calculator (V 1.0, AB Sciex) and the SWATH acquisition method editor (AB Sciex), similar to established methods. […] For these experiments, a 50-ms survey scan (350–1400 m/z) was acquired at the beginning of each cycle, and SWATH–MS/MS spectra were collected from 100–1500 m/z for 70 ms at high-sensitivity mode, resulting in a cycle time of 3.6 s. Collision energy for each window was determined according to the calculation for a charge +2 ion-centered upon the window with a collision energy spread of 15. To create a spectral library of all the detectable peptides in the samples, the IDA MS raw files were combined and subjected to database search in unison using ProteinPilot software v. 5.0.1 (AB Sciex) with the Paragon algorithm. […] The detected protein threshold was set at 0.05. An independent false discovery rate (FDR) analysis, using the target–decoy approach provided by Protein Pilot (AB Sciex; https://sciex.com/products/software/proteinpilot-software), was used to assess the quality of identifications. Positive identifications were considered when identified proteins reached 1% of global FDR. […] Global normalization was performed according to the Total Area Sums (TAS) of all detected proteins in the samples. […] Heatmaps were prepared using the Heatmapper (http://www.heatmapper.ca/expression/) with average linkage and Euclidean distance measurement method.

Substance | Fold Change | Log (Fold Change)
sp¦P06576¦ATPB_HUMAN | 0.8606 | -0.0652
sp¦P14625¦ENPL_HUMAN | 0.9081 | -0.04186
sp¦P46940¦IQGA1_HUMAN | 0.9054 | -0.04316
sp¦P49792¦RBP2_HUMAN | 0.8796 | -0.05573
sp¦P51149¦RAB7A_HUMAN | 0.8579 | -0.06658
sp¦Q8TEM1¦PO210_HUMAN | 0.8773 | -0.05687
sp¦Q9BYG3¦MK67I_HUMAN | 0.8627 | -0.06412
sp¦Q9UNM6¦PSD13_HUMAN | 0.8739 | -0.05855
sp¦Q969U7¦PSMG2_HUMAN | 0.9336 | -0.02985
sp¦Q08211¦DHX9_HUMAN | 0.8851 | -0.05303

same assay, conditions: akirin2 KO vs WT HL60 cells, SWATH-MS; sheet "Under-represented in KO"

Substance | Fold Change | Log (Fold Change)
sp¦A6NHR9¦SMHD1_HUMAN | 0.8475 | -0.07187
sp¦O43776¦SYNC_HUMAN | 0.8303 | -0.08076
sp¦P06748¦NPM_HUMAN | 0.8302 | -0.08081
sp¦P07814¦SYEP_HUMAN | 0.7964 | -0.09889
sp¦P31153¦METK2_HUMAN | 0.8314 | -0.08017
sp¦P46063¦RECQ1_HUMAN | 0.8057 | -0.09384
sp¦P61586¦RHOA_HUMAN | 0.8413 | -0.07506
sp¦Q5JVF3¦PCID2_HUMAN | 0.8079 | -0.09263
sp¦Q08J23¦NSUN2_HUMAN | 0.8062 | -0.09355
sp¦Q9NR30¦DDX21_HUMAN | 0.8521 | -0.06949
sp¦Q9NUJ1¦ABHDA_HUMAN | 0.8154 | -0.08865
sp¦Q9UBE0¦SAE1_HUMAN | 0.8421 | -0.07464
sp¦Q9ULC4¦MCTS1_HUMAN | 0.7938 | -0.1003
sp¦Q9Y5K5¦UCHL5_HUMAN | 0.8299 | -0.08098
sp¦Q01813¦PFKAP_HUMAN | 0.8149 | -0.08889
sp¦Q14566¦MCM6_HUMAN | 0.8281 | -0.08192
